Source: PubChem BioAssay AID493014 (National Center for Advancing Translational Sciences (NCATS), 2011)
Hit rate of the full screen: of about 340,000 compounds, about 170 (0.05%) were called active. This list was built around the results that the source calls inconclusive (neither active nor inactive); the mix of calls is not that of the screen. The call rests on the fitted dose curve; in most records, active means well fitted inhibition curve with a large enough effect in the signal ratio, with a control signal flat (not every such curve was filed as active); inconclusive means small, poorly fitted or top-dose-only effect, or effect the other way, or a change in a side signal; inactive means flat fitted curve, though single readings scatter; the % refers to the signal ratio. A potency beside an inconclusive call is a rough fit, not a confirmed value.

Experiment: qHTS Assay to Find Inhibitors of Chronic Active B-Cell Receptor Signaling;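 on activity change, negative = inhibition: plate controls were basal doxycycline-induced cells for no effect and cells given 10 µM MG132 for full effect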
Settings: ABC-DLBCL IkBa-CBG/CBR reporter, luminescence ratio (green luciferase fused to IkBa over red control in TMD8 lymphoma cells), 4 h; activity change, negative = inhibition: at 46.1 µM (top of the series)
How it was run: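 TMD8 ABC-DLBCL cells carrying doxycycline-inducible green luciferase fused to IkappaBalpha plus unfused red luciferase were exposed to compounds (up to 46 uM) for 4 hrs at 37C. Activity came from the overlap-corrected green/red luminescence ratio.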
Potency means the concentration at half of the fitted maximal effect.

SMILES	Potency	activity change, negative = inhibition
COc1cccc(NC(=O)CN2C(=O)COc3ccc(Cl)cc32)c1	inconclusive: 0.517 µM [rising, partial curve]	
COc1ccc(-n2cnnc2SCC(=O)Nc2cc(S(=O)(=O)N3CCCCC3)ccc2C)cc1		inactive: -0.0139%
O=C(NC(=S)N1CCN(c2ccc(O)cc2)CC1)c1cccs1		inactive: -6.2%
CCOC(=O)Cc1csc(NC(=O)C2C3C=CC(C3)C2C(=O)O)n1 (configuration not stated)		inconclusive: 11.8%
Cc1[nH]c(=S)c(C#N)c(C)c1Cc1ccccc1	inconclusive: 6.31 µM [falling, single point]	
Cn1c(SCC(=O)Nc2nccs2)nnc1C1CC1		inconclusive: 9.86%
Cc1cc(OCc2cc(C(=O)N(Cc3nccn3C)C(C)C)no2)cc(C)c1Cl		inactive: 5.68%
COc1cccc(C(=O)Nc2cc(S(=O)(=O)N3CCCCC3)ccc2OC)c1		inconclusive: 5.36%
COc1ccc(Cn2nnnc2C(c2cc3cccc(C)c3[nH]c2=O)N2CCOCC2)cc1 (configuration not stated)		inactive: -4.09%
Cc1cccc(C)c1NC(=O)c1cnn(-c2ccccc2)c1C	inconclusive: 15.8 µM [falling, partial curve]	
Oc1ccc(/C=N/Nc2ccc3ccccc3c2)c(O)c1		inconclusive: -6.46%
CCCc1[nH]c2ccc(C#N)cc2c1CCC	inconclusive: 35.5 µM [falling, single point]	
CN(C)c1ccc(/C=N/NC(=O)c2ccco2)cc1		inconclusive: 344%
COc1cccc(/C=N/NC(=O)c2nnn(-c3nonc3N)c2CN(C)c2ccccc2)c1		inconclusive: 8.67%
COc1ccc(CS(=O)(=O)CC(C)(O)c2ccc(Cl)cc2)cc1 (configuration not stated)		inconclusive: 12.5%
O=C(c1cc2ncc(CCCl)cn2n1)N1CCCCCC1		inconclusive: 2.45%
COc1ccc(OC)c(NC(=O)CSc2nnc(NC(=O)c3ccco3)s2)c1		inconclusive: -0.0411%
CCOc1cccc2sc(Cl)nc12		inconclusive: 1.63%
COc1ccc(S(=O)(=O)N2CCN(C(=O)c3ccc4ccccc4n3)CC2)cc1		inconclusive: -7.49%
O=C1c2ccccc2C(=O)C1c1ccnc2ccccc12		inactive: 1.59%
C/C(Cl)=C/CSc1nn2c(=O)c3ccccc3nc2s1		inconclusive: 23.7%

SMILES	Potency	activity change, negative = inhibition
C=CCN1C(=O)C(CC(=O)O)S/C1=N/N=C/c1ccc(N(CC)CC)cc1 (configuration not stated)	inconclusive: 20.6 µM [falling, single point]	
O=[N+]([O-])c1ccc2nc(-c3ccncc3)[nH]c2c1		inconclusive: -24.7%
COc1ccc(-c2cc(C(=O)Nc3c(F)cc(F)cc3Br)no2)cc1		inconclusive: -26.7%
O=C(CN1C(=O)NC2(CCCc3ccccc32)C1=O)NCc1cccs1 (configuration not stated)		inconclusive: 3.45%
CCCNC(=S)N1CCC(C(=O)c2ccc(F)cc2)CC1		inconclusive: -1.76%
Cc1sc2nc(C3CC3)nc(SCC(=O)NCc3ccco3)c2c1C		inconclusive: -3.87%
Cc1oc(-c2cccc(Cl)c2)nc1CN1CCC(C(=O)N2CCN(c3ccccc3F)CC2)CC1		inactive: 17%
CCCN(CCC)C(=O)c1cc(-c2ccc3c(c2)OCO3)nc2ccccc12		inconclusive: 3.01%
CC(=O)N1CCN(c2ccccc2NC(=O)c2cc(Br)ccc2Cl)CC1		inconclusive: -7.81%
Cc1cc(C)nc(/N=C(\N)N2CCCCC2)n1	inconclusive: 25.1 µM [falling, single point]	
CSCSC1=C(C#N)C(c2ccccc2Cl)C(C(C)=O)=C(C)N1 (configuration not stated)		inconclusive: 4.88%
CCCOc1ccc(-c2cn3ccccc3n2)cc1	inconclusive: 15.8 µM [falling, partial curve]	
Cc1ccsc1/C=N/NC(=O)Cn1nc(C)c([N+](=O)[O-])c1C		inactive: -3.23%
CC1(C)CC(=O)C(C=NCCN2CCN(C(=O)NC34CC5CC(CC(C5)C3)C4)CC2)=C(O)C1		inconclusive: -9.89%
CCOC(=O)[C@@H]1[C@H]2COc3ccccc3[C@@H]2N2C(=O)N(c3ccc(OC)cc3)C(=O)[C@@]12C		inactive: 6.59%
C[C@H]1CCC(=O)N([C@H](CSc2ccc(Br)cc2)Cc2ccccc2)CC1		inconclusive: 8.25%
COC(=O)c1ccc(COc2cccc3c2CCN(Cc2cccc(C)c2)C3=O)o1	inconclusive: 29.1 µM [falling, single point]	
O=C(Nc1nnc(-c2ccccc2)s1)c1ccc(F)cc1		inconclusive: -96.8%
Cc1cc(C)cc(OCC(=O)Nc2ccc3c(c2)OCO3)c1		inconclusive: 12%
O=C(Nc1ccncc1)c1cccc(F)c1	inconclusive: 23.1 µM [rising, partial curve, poor fit]	
CCOc1ccc(NC(=O)c2c(NCc3cccnc3)sc3c2CCC(C)C3)cc1 (configuration not stated)		inactive: -11.8%

Part of the list above in a different format:
SMILES | Potency | activity change, negative = inhibition
COc1cccc(C(=O)Nc2cc(S(=O)(=O)N3CCCCC3)ccc2OC)c1 |  | inconclusive: 5.36%
COc1ccc(Cn2nnnc2C(c2cc3cccc(C)c3[nH]c2=O)N2CCOCC2)cc1 (configuration not stated) |  | inactive: -4.09%
Cc1cccc(C)c1NC(=O)c1cnn(-c2ccccc2)c1C | inconclusive: 15.8 µM [falling, partial curve] | 
Oc1ccc(/C=N/Nc2ccc3ccccc3c2)c(O)c1 |  | inconclusive: -6.46%
CCCc1[nH]c2ccc(C#N)cc2c1CCC | inconclusive: 35.5 µM [falling, single point] | 
CN(C)c1ccc(/C=N/NC(=O)c2ccco2)cc1 |  | inconclusive: 344%
COc1cccc(/C=N/NC(=O)c2nnn(-c3nonc3N)c2CN(C)c2ccccc2)c1 |  | inconclusive: 8.67%
COc1ccc(CS(=O)(=O)CC(C)(O)c2ccc(Cl)cc2)cc1 (configuration not stated) |  | inconclusive: 12.5%
O=C(c1cc2ncc(CCCl)cn2n1)N1CCCCCC1 |  | inconclusive: 2.45%
COc1ccc(OC)c(NC(=O)CSc2nnc(NC(=O)c3ccco3)s2)c1 |  | inconclusive: -0.0411%
CCOc1cccc2sc(Cl)nc12 |  | inconclusive: 1.63%
COc1ccc(S(=O)(=O)N2CCN(C(=O)c3ccc4ccccc4n3)CC2)cc1 |  | inconclusive: -7.49%
O=C1c2ccccc2C(=O)C1c1ccnc2ccccc12 |  | inactive: 1.59%
C/C(Cl)=C/CSc1nn2c(=O)c3ccccc3nc2s1 |  | inconclusive: 23.7%
C=CCN1C(=O)C(CC(=O)O)S/C1=N/N=C/c1ccc(N(CC)CC)cc1 (configuration not stated) | inconclusive: 20.6 µM [falling, single point] | 
O=[N+]([O-])c1ccc2nc(-c3ccncc3)[nH]c2c1 |  | inconclusive: -24.7%
COc1ccc(-c2cc(C(=O)Nc3c(F)cc(F)cc3Br)no2)cc1 |  | inconclusive: -26.7%
O=C(CN1C(=O)NC2(CCCc3ccccc32)C1=O)NCc1cccs1 (configuration not stated) |  | inconclusive: 3.45%
CCCNC(=S)N1CCC(C(=O)c2ccc(F)cc2)CC1 |  | inconclusive: -1.76%
Cc1sc2nc(C3CC3)nc(SCC(=O)NCc3ccco3)c2c1C |  | inconclusive: -3.87%
Cc1oc(-c2cccc(Cl)c2)nc1CN1CCC(C(=O)N2CCN(c3ccccc3F)CC2)CC1 |  | inactive: 17%
CCCN(CCC)C(=O)c1cc(-c2ccc3c(c2)OCO3)nc2ccccc12 |  | inconclusive: 3.01%
CC(=O)N1CCN(c2ccccc2NC(=O)c2cc(Br)ccc2Cl)CC1 |  | inconclusive: -7.81%
Cc1cc(C)nc(/N=C(\N)N2CCCCC2)n1 | inconclusive: 25.1 µM [falling, single point] | 
CSCSC1=C(C#N)C(c2ccccc2Cl)C(C(C)=O)=C(C)N1 (configuration not stated) |  | inconclusive: 4.88%
CCCOc1ccc(-c2cn3ccccc3n2)cc1 | inconclusive: 15.8 µM [falling, partial curve] | 

(next part)

SMILES	Potency	activity change, negative = inhibition
COc1ccc(Cl)cc1NC(=S)NC1CCCC1	inconclusive: 31.6 µM [rising, single point]	
Cc1ccc2cc(CCNC(=O)c3ccc(Br)o3)c(=O)[nH]c2c1	inconclusive: 10 µM [falling, partial curve, poor fit]	
COc1ccc(OC)c(-c2csc(-c3cccs3)n2)c1		inconclusive: 20.3%
Cc1c(C(=O)Nc2ccccc2F)sc2ncn(CC(=O)N3CCOCC3)c(=O)c12		inactive: 0.164%
CCc1c(C)[nH]c(=S)c(C#N)c1C		inconclusive: -0.214%
FCCCOc1ccc(-c2ccnc3ncnn23)cc1		inconclusive: -6.48%
Cc1nc(-c2ccccc2)sc1C(=O)/C=C/N(C)C		inconclusive: 25.5%
CC1C(c2ccccc2)N(C)C(c2ccccc2)C(C)C1(O)C#Cc1ccccc1 (configuration not stated)	inconclusive: 20.6 µM [rising, partial curve]	
CC(Cc1cccs1)NC(=S)Nc1ccc(Cl)c(Cl)c1 (configuration not stated)		inconclusive: -0.295%
CCCOC(=O)C(C)n1c(-c2ccccc2)nc2ccccc2c1=O (configuration not stated)		inconclusive: 9.02%
NC(=O)COC(=O)c1cccc(S(=O)(=O)N2CCN(c3ccc(F)cc3)CC2)c1		inconclusive: 3.78%
CCOC(=O)c1c(NC(=O)c2noc(C)c2[N+](=O)[O-])sc(C(C)=O)c1C	inconclusive: 11.2 µM [falling, partial curve, poor fit]	
COCCNC(=S)N(CCc1c(C)[nH]c2ccc(F)cc12)Cc1cccs1		inconclusive: 15.6%
Cc1ccc(S(=O)(=O)CCNC(=O)Cc2ccccc2)cc1		inactive: -2.29%
Cc1ccc(NC(=O)c2cnc(SCC(=O)N3CCCc4ccccc43)n(C)c2=O)cc1	inconclusive: 10 µM [falling, partial curve, poor fit]	
COC(=O)C1Cc2ccccc2CN1C(=O)CCl (configuration not stated)	inconclusive: 35.5 µM [falling, single point]	
CCOC(=O)c1ccc(NC(=S)N2CCCC2c2ccc(OC)c(OC)c2)cc1 (configuration not stated)		inconclusive: -0.0869%
COCCNC(=O)c1ccc2c(c1)ncn2-c1ccc(C)c(Cl)c1		inconclusive: -7.43%
Cc1c(OCC(=O)NCC(O)c2ccccc2)ccc2c(-c3ccccc3)cc(=O)oc12 (configuration not stated)		inconclusive: 9.12%
CN(Cc1ccccc1)C(=O)c1ccc(NC(=O)C2=CSCCO2)cc1		inconclusive: 6.77%
O=C(CSc1nnc(-c2ccccc2F)n1C1CC1)NC(=O)c1cccc([N+](=O)[O-])c1		inactive: -0.516%

SMILES	Potency	activity change, negative = inhibition
Cn1c(CO)nc2cc(N)ccc21		inconclusive: -3.61%
CCCCc1nc2cc(C(=O)NCc3cn(C)nc3C)ccc2o1	inconclusive: 10 µM [falling, partial curve]	
Cc1ccc(/C=C(\C#N)c2nc3ccccc3[nH]2)s1	inconclusive: 3.16 µM [falling, full curve, poor fit]	
CCOc1ccc(CNC(=O)Cn2ccc3cc(S(=O)(=O)N4CCCC4)ccc32)cc1		inactive: -0.39%
COc1ccc(C(=O)NCc2cc(C)nc3ccccc23)cc1OC	inconclusive: 20 µM [falling, single point]	
CCCn1c(SCC(=O)c2c[nH]c3ccccc23)nnc1-c1ccncc1	inconclusive: 16.4 µM [falling, partial curve]	
Cc1ccccc1Nc1c(N)c(=O)oc2ccccc12		inconclusive: -22.9%
COc1ccc(C(c2c(NC(=O)c3ccccc3)sc(C)c2C)N2CCN(CCO)CC2)cc1 (configuration not stated)		inconclusive: 7.28%
CCCCN1C(=O)c2ccc(C(=O)Nc3ccc(C)c(S(=O)(=O)N(C)C)c3)cc2C1=O		inactive: 8.45%
CCCn1nnc(NC(=O)c2cccc(OCC(C)C)c2)n1		inconclusive: -9.41%
CN1c2ccccc2C(C)(C)C12CCCC(=O)N2 (configuration not stated)		inconclusive: -9.88%
Cc1cccc(CNC(=O)CCc2nnc(C3CCCCC3)o2)c1	inconclusive: 0.112 µM [falling, full curve, poor fit]	
Cc1cc2c(c(C)c1CCO)C(=O)[C@H](C)C2		inconclusive: 2.53%
Cn1nc(/C=C/c2ccccc2)ccc1=O		inconclusive: 0.6%
Cc1cc(=O)oc2cc(NC(=O)CCC(=O)O)ccc12	inconclusive: 10 µM [falling, partial curve]	
Cc1cc(C)cc(NC(=O)CN2CCCN(S(=O)(=O)c3ccc(Br)s3)CC2)c1		inconclusive: 9.78%
CCOC(=O)C(=CNc1cc(Cl)c(-c2ccco2)c(Cl)c1)C(=O)OCC		inconclusive: 1.25%
O=S(=O)(c1ccc(F)cc1)N1CN(Cc2ccco2)c2nc3ccccc3nc21	inconclusive: 6.51 µM [rising, partial curve, poor fit]	
Cc1c(O)nc(SCC(=O)Nc2cccc(C(F)(F)F)c2)n(-c2ccccc2)c1=O		inconclusive: -9.39%
